The list shows a part of the results. Single values are uncertain, as repeats are few or missing.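 The apoptosis fraction was the count of cleaved-PARP antibody-stained nuclei relative to all DNA-stained nuclei, imaged in 1,536-well plates. Screening doses were set so most cells survived, and baseline and induced cleaved-PARP levels vary greatly across cell lines.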
Tests used:
Experiment in all cases: cleaved PARP positive nuclei fraction relative to DMSO control; melanoma cells; higher = more apoptosis
Settings in all cases: library dose: low library concentration; 72 h
[1] = tested on: MZ2-MEL
[2] = tested on: MeWo
[3] = tested on: RPMI7951
[4] = tested on: RVH-421
[5] = tested on: SkMel28
[6] = tested on: SkMel30
[7] = tested on: UACC62
[8] = tested on: SkMel2

Structure (SMILES) | cleaved PARP positive nuclei fraction [1] | cleaved PARP positive nuclei fraction [2] | cleaved PARP positive nuclei fraction [3] | cleaved PARP positive nuclei fraction [4] | cleaved PARP positive nuclei fraction [5] | cleaved PARP positive nuclei fraction [6] | cleaved PARP positive nuclei fraction [7] | cleaved PARP positive nuclei fraction [8]
C[C@@H](N)c1ccc(C(=O)Nc2ccnc3[nH]ccc23)cc1 + C[C@]1(c2nc3c(C(N)=O)cccc3[nH]2)CCCN1 [Veliparib] (first compound 0.4 µM, partner dose 1.4 µM) | 67.1% | 164% | 59.3% | 154% | 63% | 50.6% | 51.7% | –
CN(c1ncccc1CNc1nc(Nc2ccc3c(c2)CC(=O)N3)ncc1C(F)(F)F)S(C)(=O)=O + C#Cc1cccc(Nc2ncnc3cc(OCCOC)c(OCCOC)cc23)c1 [erlotinib] (first compound 0.08 µM, partner dose 0.8 µM) | 222% | 62.9% | 151% | 96% | 46.9% | 62.9% | 404% | –
C[C@]1(O)C[C@@H](c2nc(-c3ccc4ccc(-c5ccccc5)nc4c3)c3c(N)nccn32)C1 + C=CCNC1=C2C[C@@H](C)C[C@H](OC)[C@H](O)[C@@H](C)/C=C(\C)[C@H](OC(N)=O)[C@@H](OC)/C=C\C=C(/C)C(=O)NC(=CC1=O)C2=O [Tanespimycin] (first compound 0.4 µM, partner dose 0.002 µM) | 234% | 354% | 108% | 774% | 183% | 89.8% | 118% | 75.8%
C[C@]1(O)C[C@@H](c2nc(-c3ccc4ccc(-c5ccccc5)nc4c3)c3c(N)nccn32)C1 + CN1CCN(c2ccc3nc(-c4c(N)c5c(F)cccc5[nH]c4=O)[nH]c3c2)CC1 [Dovitinib] (first compound 0.4 µM, partner dose 0.1 µM) | 73.3% | 79.4% | 92.9% | 78.7% | 189% | 55% | 244% | 101%
CC(=O)O[C@@]12CO[C@@H]1C[C@H](O)[C@@]1(C)C(=O)[C@H](O)C3=C(C)[C@@H](OC(=O)[C@H](O)[C@@H](NC(=O)OC(C)(C)C)c4ccccc4)C[C@@](O)([C@@H](OC(=O)c4ccccc4)[C@H]21)C3(C)C [Docetaxel] + COCC[n+]1c2c(n(Cc3cnccn3)c1C)C(=O)c1ccccc1C2=O [YM155] (first compound 0.0001 µM, partner dose 0.0004 µM) | 748% | 1160% | 338% | 152% | 239% | 430% | 857% | 1260%
C[C@@H](N)c1ccc(C(=O)Nc2ccnc3[nH]ccc23)cc1 + Clc1ccc(Nc2nnc(Cc3ccncc3)c3ccccc23)cc1 [vatalanib] (first compound 0.4 µM, partner dose 2 µM) | 157% | 300% | 122% | 279% | 85.6% | 43.9% | 98.8% | 102%
Cn1cnc2c(F)c(Nc3ccc(Br)cc3Cl)c(C(=O)NOCCO)cc21 [selumetinib] + C[C@@H](Oc1cc(-c2cnn(C3CCNCC3)c2)cnc1N)c1c(Cl)ccc(F)c1Cl [Crizotinib] (first compound 0.015 µM, partner dose 0.2 µM) | 323% | 190% | 21.3% | 128% | 165% | 151% | 212% | 149%
Cn1cnc2c(F)c(Nc3ccc(Br)cc3Cl)c(C(=O)NOCCO)cc21 [selumetinib] + CC(=O)O[C@@]12CO[C@@H]1C[C@H](O)[C@@]1(C)C(=O)[C@H](O)C3=C(C)[C@@H](OC(=O)[C@H](O)[C@@H](NC(=O)OC(C)(C)C)c4ccccc4)C[C@@](O)([C@@H](OC(=O)c4ccccc4)[C@H]21)C3(C)C [Docetaxel] (first compound 0.015 µM, partner dose 0.0001 µM) | 500% | 465% | 273% | 227% | 260% | 130% | 398% | 313%
NC(=O)c1ccc(N(C(N)=O)c2c(F)cccc2F)nc1-c1ccc(F)cc1F + Nc1ncn([C@H]2C[C@H](O)[C@@H](CO)O2)c(=O)n1 [decitabine] (first compound 0.4 µM, partner dose 0.1 µM) | 167% | 116% | 47.5% | 280% | 90.1% | 44% | 120% | 86.9%
Cn1cnc2c(F)c(Nc3ccc(Br)cc3Cl)c(C(=O)NOCCO)cc21 [selumetinib] + O=C(O)[C@@H]1[O][Sb](=[O])([O][Sb]2(=[O])[O][C@H]([C@H](O)CO)[C@H](O)[C@H](C(=O)O)[O]2)[O][C@H]([C@H](O)CO)[C@@H]1O [stibogluconate] (first compound 0.015 µM, partner dose 2 µM) | 150% | 106% | 253% | 145% | 89.9% | 73.9% | 308% | 265%

Shown as tab-separated lines: part of the list above
Structure (SMILES)	cleaved PARP positive nuclei fraction [1]	cleaved PARP positive nuclei fraction [2]	cleaved PARP positive nuclei fraction [3]	cleaved PARP positive nuclei fraction [4]	cleaved PARP positive nuclei fraction [5]	cleaved PARP positive nuclei fraction [6]	cleaved PARP positive nuclei fraction [7]	cleaved PARP positive nuclei fraction [8]
CN(c1ncccc1CNc1nc(Nc2ccc3c(c2)CC(=O)N3)ncc1C(F)(F)F)S(C)(=O)=O + C#Cc1cccc(Nc2ncnc3cc(OCCOC)c(OCCOC)cc23)c1 [erlotinib] (first compound 0.08 µM, partner dose 0.8 µM)	222%	62.9%	151%	96%	46.9%	62.9%	404%	–
C[C@]1(O)C[C@@H](c2nc(-c3ccc4ccc(-c5ccccc5)nc4c3)c3c(N)nccn32)C1 + C=CCNC1=C2C[C@@H](C)C[C@H](OC)[C@H](O)[C@@H](C)/C=C(\C)[C@H](OC(N)=O)[C@@H](OC)/C=C\C=C(/C)C(=O)NC(=CC1=O)C2=O [Tanespimycin] (first compound 0.4 µM, partner dose 0.002 µM)	234%	354%	108%	774%	183%	89.8%	118%	75.8%

Reference: the supplement of paper PMC4604168 (melanoma cell lines)
